# The list shows a part of the results.
# Experiments:
# Test in all cases: glycan array binding signal (z-score within array); higher = stronger binding
# Settings in all cases: glycan notation: IUPAC condensed, linker removed
# Gal(b1-2)Gal = molecular target: Gal(b1-2)Gal
# Outline: (§1)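 From the Consortium for Functional Glycomics database, 3228 arrays were curated, keeping only those whose protein sequence was available. Binding is given as a within-array Z-score averaged across arrays sharing a protein sequence and across linkers. Negative Z-scores can be read as non-binding.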
# Gal(b1-3)Gal = molecular target: Gal(b1-3)Gal
# Outline: as §1
# Gal(b1-3)Gal(b1-4)GlcNAc = molecular target: Gal(b1-3)Gal(b1-4)GlcNAc
# Outline: as §1
# Gal(b1-3)GalNAc = molecular target: Gal(b1-3)GalNAc
# Outline: as §1
# [1] = molecular target: Gal(b1-3)GalNAc(a1-3)[Fuc(a1-2)]Gal(b1-4)Glc
# Outline: as §1
# [2] = molecular target: Gal(b1-3)GalNAc(a1-3)[Fuc(a1-2)]Gal(b1-4)GlcNAc
# Outline: as §1
# Gal(b1-3)GalNAc(b1-3)Gal = molecular target: Gal(b1-3)GalNAc(b1-3)Gal
# Outline: as §1
# [3] = molecular target: Gal(b1-3)GalNAc(b1-3)Gal(a1-4)Gal(b1-4)Glc
# Outline: as §1
# [4] = molecular target: Gal(b1-3)GalNAc(b1-4)Gal(b1-4)Glc
# Outline: as §1
# [5] = molecular target: Gal(b1-3)GalNAc(b1-4)[Neu5Ac(a2-3)]Gal(b1-4)Glc
# Outline: as §1
# Gal(b1-3)GlcNAc = molecular target: Gal(b1-3)GlcNAc
# Outline: as §1
# [6] = molecular target: Gal(b1-3)GlcNAc(a1-3)Gal(b1-4)GlcNAc
# Outline: as §1
# [7] = molecular target: Gal(b1-3)GlcNAc(a1-6)Gal(b1-4)GlcNAc
# Outline: as §1
# Gal(b1-3)GlcNAc(b1-2)Man = molecular target: Gal(b1-3)GlcNAc(b1-2)Man
# Outline: as §1
# [8] = molecular target: Gal(b1-3)GlcNAc(b1-2)Man(a1-3)[Gal(b1-3)GlcNAc(b1-2)Man(a1-6)]Man(b1-4)GlcNAc(b1-4)GlcNAc
# Outline: as §1
# [9] = molecular target: Gal(b1-3)GlcNAc(b1-2)Man(a1-3)[Gal(b1-3)GlcNAc(b1-2)Man(a1-6)]Man(b1-4)GlcNAc(b1-4)[Fuc(a1-6)]GlcNAc
# Outline: as §1
# [10] = molecular target: Gal(b1-3)GlcNAc(b1-2)Man(a1-3)[GlcNAc(b1-4)][Gal(b1-3)GlcNAc(b1-2)Man(a1-6)]Man(b1-4)GlcNAc(b1-4)GlcNAc
# Outline: as §1
# [11] = molecular target: Gal(b1-3)GlcNAc(b1-2)[Gal(b1-3)GlcNAc(b1-6)]Man(a1-6)[Gal(b1-3)GlcNAc(b1-2)Man(a1-3)]Man(b1-4)GlcNAc(b1-4)GlcNAc
# Outline: as §1
# [12] = molecular target: Gal(b1-3)GlcNAc(b1-3)Gal(b1-3)GlcNAc
# Outline: as §1
# [13] = molecular target: Gal(b1-3)GlcNAc(b1-3)Gal(b1-4)Glc
# Outline: as §1
# [14] = molecular target: Gal(b1-3)GlcNAc(b1-3)Gal(b1-4)GlcNAc
# Outline: as §1
# [15] = molecular target: Gal(b1-3)GlcNAc(b1-3)Gal(b1-4)GlcNAc(b1-2)Man(a1-3)[Gal(b1-3)GlcNAc(b1-3)Gal(b1-4)GlcNAc(b1-2)Man(a1-6)]Man(b1-4)GlcNAc(b1-4)GlcNAc
# Outline: as §1
# [16] = molecular target: Gal(b1-3)GlcNAc(b1-3)Gal(b1-4)GlcNAc(b1-2)[Gal(b1-3)GlcNAc(b1-3)Gal(b1-4)GlcNAc(b1-6)]Man(a1-6)[Gal(b1-3)GlcNAc(b1-3)Gal(b1-4)GlcNAc(b1-2)Man(a1-3)]Man(b1-4)GlcNAc(b1-4)[Fuc(a1-6)]GlcNAc
# Outline: as §1
# [17] = molecular target: Gal(b1-3)GlcNAc(b1-3)Gal(b1-4)GlcNAc(b1-3)Gal(b1-4)GlcNAc(b1-2)[Gal(b1-3)GlcNAc(b1-3)Gal(b1-4)GlcNAc(b1-3)Gal(b1-4)GlcNAc(b1-6)]Man(a1-6)[Gal(b1-3)GlcNAc(b1-3)Gal(b1-4)GlcNAc(b1-3)Gal(b1-4)GlcNAc(b1-2)Man(a1-3)]Man(b1-4)GlcNAc(b1-4)[Fuc(a1-6)]GlcNAc
# Outline: as §1
# [18] = molecular target: Gal(b1-3)GlcNAc(b1-3)Gal(b1-4)GlcNAc(b1-6)[Gal(b1-3)GlcNAc(b1-3)]Gal(b1-4)Glc
# Outline: as §1
# [19] = molecular target: Gal(b1-3)GlcNAc(b1-3)Gal(b1-4)[Fuc(a1-3)]GlcNAc
# Outline: as §1
# [20] = molecular target: Gal(b1-3)GlcNAc(b1-3)Gal(b1-4)[Fuc(a1-3)]GlcNAc(b1-6)[Gal(b1-3)GlcNAc(b1-3)]Gal(b1-4)Glc
# Outline: as §1
# [21] = molecular target: Gal(b1-3)GlcNAc(b1-3)GalNAc
# Outline: as §1
# [22] = molecular target: Gal(b1-3)GlcNAc(b1-6)Gal(b1-4)GlcNAc
# Outline: as §1
# [23] = molecular target: Gal(b1-3)GlcNAc(b1-6)GalNAc
# Outline: as §1
# [24] = molecular target: Gal(b1-3)GlcNAc(b1-6)[Gal(b1-3)]GalNAc
# Outline: as §1
# Gal(b1-3)GlcNAc6S = molecular target: Gal(b1-3)GlcNAc6S
# Outline: as §1
# [25] = molecular target: Gal(b1-3)[Fuc(a1-4)]GlcNAc
# Outline: as §1
# [26] = molecular target: Gal(b1-3)[Fuc(a1-4)]GlcNAc(b1-2)Man
# Outline: as §1
# [27] = molecular target: Gal(b1-3)[Fuc(a1-4)]GlcNAc(b1-2)Man(a1-3)[Gal(b1-3)[Fuc(a1-4)]GlcNAc(b1-2)Man(a1-6)]Man(b1-4)GlcNAc(b1-4)[Fuc(a1-6)]GlcNAc
# Outline: as §1
# [28] = molecular target: Gal(b1-3)[Fuc(a1-4)]GlcNAc(b1-3)Gal(b1-3)[Fuc(a1-4)]GlcNAc
# Outline: as §1
# [29] = molecular target: Gal(b1-3)[Fuc(a1-4)]GlcNAc(b1-3)Gal(b1-4)[Fuc(a1-3)]GlcNAc
# Outline: as §1
# [30] = molecular target: Gal(b1-3)[Fuc(a1-4)]GlcNAc(b1-6)GalNAc
# Outline: as §1
# [31] = molecular target: Gal(b1-3)[GlcNAc(b1-6)]GalNAc
# Outline: as §1
# [32] = molecular target: Gal(b1-3)[Neu5Ac(a2-6)]GalNAc
# Outline: as §1
# [33] = molecular target: Gal(b1-3)[Neu5Ac(a2-6)]GlcNAc(b1-4)Gal(b1-4)Glc
# Outline: as §1
# [34] = molecular target: Gal(b1-3)[Neu5Ac(b2-6)]GalNAc
# Outline: as §1
# Gal(b1-4)Gal = molecular target: Gal(b1-4)Gal
# Outline: as §1
# [35] = molecular target: Gal(b1-4)GalNAc(a1-3)[Fuc(a1-2)]Gal(b1-4)GlcNAc
# Outline: as §1
# [36] = molecular target: Gal(b1-4)GalNAc(b1-3)[Fuc(a1-2)]Gal(b1-4)GlcNAc
# Outline: as §1
binder,measurement,setting,value
Thrombomodulin Lectin (Mus musculus) (protein) LSALAKLQPTGSQCVEHECFALFQGPATFLDASQACQRLQGHLMTVRSSVAADVISLLLSQSSMDLGPWIGLQLPQGCDDPVHLGPLRGFQWVTGDNHTSYSRWARPNDQTAPLCGPLCVTVSTATEAAPGEPAWEEKPCETETQGFLCEFYFTASCRVDPIPVREDTKEEEGAGEPPVSPTPGSPTGPPSARPVLDEPRVPITQNPCPPLKECPPCAAPDLEGGPSVFIFPPKIKDVLMISLSPMVTCVVVDVSEDDPDVQISWFVNNVEVHTAQTQTHREDYNSTLRVVSALPIQHQDWMSGKAFACAVNNRALPSPIEKTISKPRGPVRAPQVYVLPPPAEEMTKKEFSLTCMITGFLPAEIAVDWTSNGRTEQNYKNTATVLDSDGSYFMYSKLRVQKSTWERGSLFACSVVHEGLHNHLTTKTISRSLGK,glycan array binding signal (z-score),Gal(b1-2)Gal,0.104
same,glycan array binding signal (z-score),Gal(b1-3)Gal,2.2
same,glycan array binding signal (z-score),Gal(b1-3)Gal(b1-4)GlcNAc,0.215
same,glycan array binding signal (z-score),Gal(b1-3)GalNAc,-0.823
same,glycan array binding signal (z-score),[1],-1.3
same,glycan array binding signal (z-score),[2],0.567
same,glycan array binding signal (z-score),Gal(b1-3)GalNAc(b1-3)Gal,-0.295
same,glycan array binding signal (z-score),[3],0.766
same,glycan array binding signal (z-score),[4],0.526
same,glycan array binding signal (z-score),[5],1.84
same,glycan array binding signal (z-score),Gal(b1-3)GlcNAc,0.176
same,glycan array binding signal (z-score),[6],-0.233
same,glycan array binding signal (z-score),[7],0.476
same,glycan array binding signal (z-score),Gal(b1-3)GlcNAc(b1-2)Man,-0.833
same,glycan array binding signal (z-score),[8],0.924
same,glycan array binding signal (z-score),[9],1.44
same,glycan array binding signal (z-score),[10],0.031
same,glycan array binding signal (z-score),[11],-0.313
same,glycan array binding signal (z-score),[12],-0.119
same,glycan array binding signal (z-score),[13],-0.14
same,glycan array binding signal (z-score),[14],1.05
same,glycan array binding signal (z-score),[15],-0.648
same,glycan array binding signal (z-score),[16],1.65
same,glycan array binding signal (z-score),[17],-0.572
same,glycan array binding signal (z-score),[18],-0.163
same,glycan array binding signal (z-score),[19],0.335
same,glycan array binding signal (z-score),[20],-0.562
same,glycan array binding signal (z-score),[21],-0.36
same,glycan array binding signal (z-score),[22],-0.581
same,glycan array binding signal (z-score),[23],-0.365
same,glycan array binding signal (z-score),[24],0.044
same,glycan array binding signal (z-score),Gal(b1-3)GlcNAc6S,-1.01
same,glycan array binding signal (z-score),[25],0.138
same,glycan array binding signal (z-score),[26],0.806
same,glycan array binding signal (z-score),[27],1.04
same,glycan array binding signal (z-score),[28],1.08
same,glycan array binding signal (z-score),[29],-0.275
same,glycan array binding signal (z-score),[30],-0.03
same,glycan array binding signal (z-score),[31],0.434
same,glycan array binding signal (z-score),[32],-0.959
same,glycan array binding signal (z-score),[33],-2.08
same,glycan array binding signal (z-score),[34],-0.837
same,glycan array binding signal (z-score),Gal(b1-4)Gal,-0.267
same,glycan array binding signal (z-score),[35],-0.489
same,glycan array binding signal (z-score),[36],-0.082

# Random excerpt: two entries already listed, in no set order.
binder,measurement,setting,value
Thrombomodulin Lectin (Mus musculus) (protein) LSALAKLQPTGSQCVEHECFALFQGPATFLDASQACQRLQGHLMTVRSSVAADVISLLLSQSSMDLGPWIGLQLPQGCDDPVHLGPLRGFQWVTGDNHTSYSRWARPNDQTAPLCGPLCVTVSTATEAAPGEPAWEEKPCETETQGFLCEFYFTASCRVDPIPVREDTKEEEGAGEPPVSPTPGSPTGPPSARPVLDEPRVPITQNPCPPLKECPPCAAPDLEGGPSVFIFPPKIKDVLMISLSPMVTCVVVDVSEDDPDVQISWFVNNVEVHTAQTQTHREDYNSTLRVVSALPIQHQDWMSGKAFACAVNNRALPSPIEKTISKPRGPVRAPQVYVLPPPAEEMTKKEFSLTCMITGFLPAEIAVDWTSNGRTEQNYKNTATVLDSDGSYFMYSKLRVQKSTWERGSLFACSVVHEGLHNHLTTKTISRSLGK,glycan array binding signal (z-score),[13],-0.14
same,glycan array binding signal (z-score),[8],0.924

# From the supplement of paper PMC8728848
